Source: the supplement of paper PMC10060354, “Discovery of a small molecule ligand of FRS2 that inhibits invasion and tumor growth” (Cellular Oncology, 2022)
Many values rest on one well or one pass, so single values are uncertain.

The chains behind the UniProt entries cited, without tags or fusion partners. Where a name states a change or a piece, a line headed by the entry shows the natural chain unless it says otherwise.
UniProt O00762: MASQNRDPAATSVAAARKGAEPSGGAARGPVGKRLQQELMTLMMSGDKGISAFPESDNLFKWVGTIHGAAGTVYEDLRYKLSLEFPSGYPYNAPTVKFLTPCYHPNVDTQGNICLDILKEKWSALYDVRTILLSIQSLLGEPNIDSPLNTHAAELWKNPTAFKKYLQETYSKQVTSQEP
UniProt O43390: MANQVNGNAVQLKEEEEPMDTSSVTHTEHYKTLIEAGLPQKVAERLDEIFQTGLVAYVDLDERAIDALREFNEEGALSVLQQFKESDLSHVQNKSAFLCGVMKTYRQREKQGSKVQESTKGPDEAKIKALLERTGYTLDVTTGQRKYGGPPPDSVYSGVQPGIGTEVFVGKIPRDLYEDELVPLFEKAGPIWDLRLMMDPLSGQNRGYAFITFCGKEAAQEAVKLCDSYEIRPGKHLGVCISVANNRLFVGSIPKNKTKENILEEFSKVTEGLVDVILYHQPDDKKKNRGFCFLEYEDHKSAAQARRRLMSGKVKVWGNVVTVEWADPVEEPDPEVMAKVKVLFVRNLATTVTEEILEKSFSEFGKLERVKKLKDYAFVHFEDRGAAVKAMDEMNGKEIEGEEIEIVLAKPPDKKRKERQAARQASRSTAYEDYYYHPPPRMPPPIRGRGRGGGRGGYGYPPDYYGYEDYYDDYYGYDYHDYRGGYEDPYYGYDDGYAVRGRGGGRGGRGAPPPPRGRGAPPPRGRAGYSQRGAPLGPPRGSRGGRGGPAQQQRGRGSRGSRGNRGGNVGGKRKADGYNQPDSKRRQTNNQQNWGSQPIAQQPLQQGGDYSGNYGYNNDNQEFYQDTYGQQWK
UniProt Q6P9B6: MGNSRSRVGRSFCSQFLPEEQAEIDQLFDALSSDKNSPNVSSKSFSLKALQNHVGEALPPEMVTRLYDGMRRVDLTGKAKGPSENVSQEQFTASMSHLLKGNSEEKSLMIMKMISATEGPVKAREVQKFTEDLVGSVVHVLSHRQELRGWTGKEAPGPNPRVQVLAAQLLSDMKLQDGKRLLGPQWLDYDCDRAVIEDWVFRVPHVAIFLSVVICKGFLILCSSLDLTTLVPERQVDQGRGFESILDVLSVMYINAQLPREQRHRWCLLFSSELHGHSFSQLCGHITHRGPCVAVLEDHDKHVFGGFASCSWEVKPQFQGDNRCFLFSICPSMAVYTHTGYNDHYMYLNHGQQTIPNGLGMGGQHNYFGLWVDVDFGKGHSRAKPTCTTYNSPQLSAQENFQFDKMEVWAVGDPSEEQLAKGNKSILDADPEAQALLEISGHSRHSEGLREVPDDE
UniProt Q9UHJ6: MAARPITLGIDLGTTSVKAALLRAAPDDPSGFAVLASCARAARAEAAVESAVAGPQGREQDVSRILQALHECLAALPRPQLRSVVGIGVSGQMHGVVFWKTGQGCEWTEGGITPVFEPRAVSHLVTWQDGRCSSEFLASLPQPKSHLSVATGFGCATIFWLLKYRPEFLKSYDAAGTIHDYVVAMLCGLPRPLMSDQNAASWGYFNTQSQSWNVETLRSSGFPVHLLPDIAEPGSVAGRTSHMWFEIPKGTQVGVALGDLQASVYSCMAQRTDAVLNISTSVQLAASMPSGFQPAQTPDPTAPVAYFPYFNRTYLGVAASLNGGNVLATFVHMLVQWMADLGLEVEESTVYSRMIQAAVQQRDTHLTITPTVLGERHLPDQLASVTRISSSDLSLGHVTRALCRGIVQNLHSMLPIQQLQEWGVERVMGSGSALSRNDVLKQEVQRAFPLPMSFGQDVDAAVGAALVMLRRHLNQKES
UniProt A7E2V4, whole entry: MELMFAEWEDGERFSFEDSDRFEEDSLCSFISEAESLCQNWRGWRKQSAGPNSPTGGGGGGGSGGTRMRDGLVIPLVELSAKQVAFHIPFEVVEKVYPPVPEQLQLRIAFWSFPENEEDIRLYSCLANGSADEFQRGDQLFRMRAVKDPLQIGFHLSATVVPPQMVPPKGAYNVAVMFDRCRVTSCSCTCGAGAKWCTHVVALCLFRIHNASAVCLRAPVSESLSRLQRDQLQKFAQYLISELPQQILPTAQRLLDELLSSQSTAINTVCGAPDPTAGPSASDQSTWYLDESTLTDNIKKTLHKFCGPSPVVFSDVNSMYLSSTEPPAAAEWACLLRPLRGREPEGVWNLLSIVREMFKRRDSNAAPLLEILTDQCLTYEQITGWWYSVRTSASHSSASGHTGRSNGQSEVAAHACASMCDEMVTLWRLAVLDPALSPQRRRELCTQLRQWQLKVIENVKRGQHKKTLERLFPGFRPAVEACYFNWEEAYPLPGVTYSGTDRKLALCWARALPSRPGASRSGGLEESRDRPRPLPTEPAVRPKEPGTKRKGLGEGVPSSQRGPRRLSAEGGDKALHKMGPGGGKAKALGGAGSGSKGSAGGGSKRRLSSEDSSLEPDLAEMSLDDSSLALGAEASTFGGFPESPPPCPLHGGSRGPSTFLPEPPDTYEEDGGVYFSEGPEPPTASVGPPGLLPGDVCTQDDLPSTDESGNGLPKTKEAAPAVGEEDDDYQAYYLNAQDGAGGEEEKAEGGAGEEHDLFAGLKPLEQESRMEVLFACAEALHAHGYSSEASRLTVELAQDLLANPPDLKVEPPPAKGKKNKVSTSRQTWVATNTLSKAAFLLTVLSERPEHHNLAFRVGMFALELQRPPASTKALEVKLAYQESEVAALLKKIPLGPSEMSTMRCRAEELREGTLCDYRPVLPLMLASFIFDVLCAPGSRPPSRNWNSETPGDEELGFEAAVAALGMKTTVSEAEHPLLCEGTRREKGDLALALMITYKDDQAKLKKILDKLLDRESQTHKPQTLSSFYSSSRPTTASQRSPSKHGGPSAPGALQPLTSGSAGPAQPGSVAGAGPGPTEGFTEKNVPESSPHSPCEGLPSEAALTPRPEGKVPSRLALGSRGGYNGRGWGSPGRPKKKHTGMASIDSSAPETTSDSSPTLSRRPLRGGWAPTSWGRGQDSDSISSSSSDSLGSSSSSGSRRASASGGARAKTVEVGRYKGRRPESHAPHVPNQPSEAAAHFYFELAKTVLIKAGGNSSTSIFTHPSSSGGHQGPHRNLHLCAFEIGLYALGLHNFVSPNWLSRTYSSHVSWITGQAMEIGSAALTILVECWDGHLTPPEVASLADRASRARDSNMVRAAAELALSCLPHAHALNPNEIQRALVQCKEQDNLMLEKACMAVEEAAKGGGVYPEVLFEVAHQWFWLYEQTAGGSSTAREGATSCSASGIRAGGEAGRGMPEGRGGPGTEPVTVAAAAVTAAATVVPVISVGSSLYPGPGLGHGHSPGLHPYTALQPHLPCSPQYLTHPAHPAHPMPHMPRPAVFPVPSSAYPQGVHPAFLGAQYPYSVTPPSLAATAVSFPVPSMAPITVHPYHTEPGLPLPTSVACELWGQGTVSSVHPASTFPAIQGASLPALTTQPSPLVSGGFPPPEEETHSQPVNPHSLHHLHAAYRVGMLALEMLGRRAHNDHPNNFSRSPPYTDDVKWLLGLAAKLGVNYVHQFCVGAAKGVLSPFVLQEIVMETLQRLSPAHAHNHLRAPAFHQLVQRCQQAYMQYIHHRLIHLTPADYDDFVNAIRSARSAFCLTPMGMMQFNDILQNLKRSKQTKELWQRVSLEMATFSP
UniProt Q8WZA9: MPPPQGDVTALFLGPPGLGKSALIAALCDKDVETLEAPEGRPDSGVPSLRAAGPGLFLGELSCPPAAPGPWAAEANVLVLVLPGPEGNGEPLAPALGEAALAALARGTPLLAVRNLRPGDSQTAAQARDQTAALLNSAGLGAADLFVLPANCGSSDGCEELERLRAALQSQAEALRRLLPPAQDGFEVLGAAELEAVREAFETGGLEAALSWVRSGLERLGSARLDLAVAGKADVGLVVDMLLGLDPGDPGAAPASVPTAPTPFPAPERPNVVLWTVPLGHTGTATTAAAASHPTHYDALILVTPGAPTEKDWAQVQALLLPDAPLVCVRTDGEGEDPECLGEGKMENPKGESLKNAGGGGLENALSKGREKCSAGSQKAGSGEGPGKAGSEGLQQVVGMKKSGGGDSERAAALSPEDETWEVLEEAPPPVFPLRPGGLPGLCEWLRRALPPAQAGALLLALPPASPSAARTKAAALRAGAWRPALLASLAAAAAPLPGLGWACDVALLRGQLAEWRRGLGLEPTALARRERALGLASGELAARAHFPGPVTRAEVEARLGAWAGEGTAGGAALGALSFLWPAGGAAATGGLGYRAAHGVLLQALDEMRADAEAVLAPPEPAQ
UniProt Q9BZQ6: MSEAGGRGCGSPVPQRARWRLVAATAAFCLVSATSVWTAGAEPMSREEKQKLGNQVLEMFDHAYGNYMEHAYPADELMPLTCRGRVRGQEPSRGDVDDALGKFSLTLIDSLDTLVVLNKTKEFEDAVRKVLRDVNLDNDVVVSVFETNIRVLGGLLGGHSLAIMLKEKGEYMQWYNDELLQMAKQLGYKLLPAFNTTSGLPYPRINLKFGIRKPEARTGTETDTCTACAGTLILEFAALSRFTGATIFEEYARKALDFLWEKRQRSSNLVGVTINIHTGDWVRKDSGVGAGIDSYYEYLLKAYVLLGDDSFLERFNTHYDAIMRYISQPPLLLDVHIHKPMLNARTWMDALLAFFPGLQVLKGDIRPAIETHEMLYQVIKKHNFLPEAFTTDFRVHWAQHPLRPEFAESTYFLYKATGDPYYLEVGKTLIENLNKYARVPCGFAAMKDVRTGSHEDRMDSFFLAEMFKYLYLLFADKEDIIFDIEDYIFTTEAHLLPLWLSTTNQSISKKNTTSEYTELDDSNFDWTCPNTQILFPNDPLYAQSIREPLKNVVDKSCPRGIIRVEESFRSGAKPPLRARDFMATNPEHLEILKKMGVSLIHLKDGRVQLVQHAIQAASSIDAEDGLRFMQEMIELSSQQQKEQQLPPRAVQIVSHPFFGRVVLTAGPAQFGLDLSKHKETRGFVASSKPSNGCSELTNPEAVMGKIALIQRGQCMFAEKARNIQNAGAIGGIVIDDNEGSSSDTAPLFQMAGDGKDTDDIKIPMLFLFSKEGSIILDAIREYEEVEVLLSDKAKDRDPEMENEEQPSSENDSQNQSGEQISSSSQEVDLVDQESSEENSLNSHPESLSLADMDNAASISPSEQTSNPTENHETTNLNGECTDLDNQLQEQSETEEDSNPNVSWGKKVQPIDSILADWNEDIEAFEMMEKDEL
UniProt O43427: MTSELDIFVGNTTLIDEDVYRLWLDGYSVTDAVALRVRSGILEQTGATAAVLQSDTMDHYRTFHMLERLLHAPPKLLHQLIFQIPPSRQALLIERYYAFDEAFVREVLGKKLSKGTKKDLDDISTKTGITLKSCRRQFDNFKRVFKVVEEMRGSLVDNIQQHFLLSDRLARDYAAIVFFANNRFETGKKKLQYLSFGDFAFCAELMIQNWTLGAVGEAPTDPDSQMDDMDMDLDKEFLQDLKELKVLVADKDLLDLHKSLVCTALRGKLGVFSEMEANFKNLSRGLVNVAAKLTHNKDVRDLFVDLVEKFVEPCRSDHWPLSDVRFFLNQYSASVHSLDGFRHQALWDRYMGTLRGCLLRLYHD
UniProt Q9NTZ6: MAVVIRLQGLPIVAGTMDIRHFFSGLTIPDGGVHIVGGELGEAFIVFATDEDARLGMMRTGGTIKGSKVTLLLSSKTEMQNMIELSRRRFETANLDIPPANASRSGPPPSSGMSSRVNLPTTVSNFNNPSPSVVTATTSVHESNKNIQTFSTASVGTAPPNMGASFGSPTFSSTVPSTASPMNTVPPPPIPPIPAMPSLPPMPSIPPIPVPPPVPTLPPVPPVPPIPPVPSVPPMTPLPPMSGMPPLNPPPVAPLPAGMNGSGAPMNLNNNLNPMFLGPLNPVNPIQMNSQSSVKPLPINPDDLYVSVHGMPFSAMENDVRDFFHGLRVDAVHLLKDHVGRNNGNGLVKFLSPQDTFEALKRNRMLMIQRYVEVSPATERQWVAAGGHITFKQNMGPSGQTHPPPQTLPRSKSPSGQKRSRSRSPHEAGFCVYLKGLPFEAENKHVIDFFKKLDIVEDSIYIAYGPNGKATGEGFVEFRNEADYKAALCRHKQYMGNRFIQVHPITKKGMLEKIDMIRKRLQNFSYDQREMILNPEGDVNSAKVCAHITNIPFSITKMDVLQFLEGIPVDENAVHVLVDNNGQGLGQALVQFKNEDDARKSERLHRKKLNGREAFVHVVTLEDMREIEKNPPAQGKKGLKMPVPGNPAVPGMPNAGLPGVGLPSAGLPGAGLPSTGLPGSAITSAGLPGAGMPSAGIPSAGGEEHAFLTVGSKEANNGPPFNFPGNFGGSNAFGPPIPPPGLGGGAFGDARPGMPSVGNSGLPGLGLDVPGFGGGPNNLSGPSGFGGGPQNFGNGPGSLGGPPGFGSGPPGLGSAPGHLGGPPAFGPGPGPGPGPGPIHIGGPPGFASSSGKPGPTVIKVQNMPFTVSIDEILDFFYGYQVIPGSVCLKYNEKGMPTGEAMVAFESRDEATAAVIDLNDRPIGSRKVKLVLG
UniProt P30046: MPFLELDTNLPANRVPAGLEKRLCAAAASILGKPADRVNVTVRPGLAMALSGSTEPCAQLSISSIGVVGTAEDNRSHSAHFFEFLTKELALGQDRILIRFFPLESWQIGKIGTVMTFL

Compound: [O-][N+](C(C1=C(C(O)=C2)NC(C(C=C3)=CC=C3Cl)C4C1C=CC4)=C2Cl)=O
Test: melting temperature shift (compound 7 minus DMSO); higher = compound stabilises the protein
Settings: 10 µM
Procedure: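 Thermal proteome profiling (TMT mass spectrometry) in intact DAOY medulloblastoma cells or DAOY lysates treated with 10 µM compound 7 or DMSO, heated at 10 temperatures from 40.5 to 73.8 °C for 3 min. Melting curves were fitted with the Bioconductor TPP package, and the melting point difference between compound and vehicle is reported per protein (single curve per condition).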

[1] = system: DAOY cell lysate, treatment time: 20 min, 4 °C
[2] = system: intact DAOY cells, treatment time: 90 min, 37 °C

| Target | melting temperature shift [1] [°C] | melting temperature shift [2] [°C] |
| --- | --- | --- |
| MGAT1 (UniProt P26572) | 1.97 |  |
| UBE2C (UniProt O00762) | -1.17 | -0.115 |
| DYNLRB1 (UniProt Q9NP97) | 0.544 | -0.628 |
| ODR4 (UniProt Q5SWX8) | -1.52 | -1.22 |
| HNRNPR (UniProt O43390) | 0.664 | -0.577 |
| UniProt Q9NVA2 | -1.31 | 0.765 |
| DHX8 (UniProt Q14562) | 1.61 | -1.63 |
| UniProt B5ME19 |  | -0.185 |
| UniProt Q8IXM6 | -0.455 |  |
| SH3BGRL3 (UniProt Q9H299) | 0.481 | 0.0491 |
| RBBP4 (UniProt Q09028) | 0.228 | 1.49 |
| CAMK2G (UniProt Q13555) | 0.855 | -1.9 |
| HOMER3 (UniProt Q9NSC5) | -2.82 |  |
| USP48 (UniProt Q86UV5) | 0.00471 | 0.148 |
| DNAJC15 (UniProt Q9Y5T4) | 1.81 |  |
| UniProt Q5QNW6 |  | 0.352 |
| UniProt O14576 | -1.85 |  |
| PPP1R7 (UniProt Q15435) | -0.795 | 1.21 |
| CLASRP (UniProt Q8N2M8) | -0.0176 |  |
| AK3 (UniProt Q9UIJ7) | 0.387 | -0.642 |
| FASN (UniProt P49327) | -0.17 | 0.421 |
| BCAR1 (UniProt P56945) | -0.954 | 0.821 |
| UniProt Q14533 | -1.69 |  |
| UniProt Q6UWV6 |  | 2.16 |

| Target | melting temperature shift [1] [°C] | melting temperature shift [2] [°C] |
| --- | --- | --- |
| TMED5 (UniProt Q9Y3A6) | -0.194 | -0.856 |
| CHMP7 (UniProt Q8WUX9) | -0.862 | -0.446 |
| COQ6 (UniProt Q9Y2Z9) | 0.236 | 0.11 |
| TLDC1 (UniProt Q6P9B6) | 1.09 | 1.41 |
| DMD (UniProt P11532) | -1.41 | 0.622 |
| PARVB (UniProt Q9HBI1) | -2.13 | -1.37 |
| DPP8 (UniProt Q6V1X1) |  | -0.21 |
| UniProt Q9UHJ6 | -0.975 | 1.01 |
| COPS8 (UniProt Q99627) | -0.685 | -0.0421 |
| UniProt Q9ULQ0 |  | 0.656 |
| SLC6A6 (UniProt P31641) |  | -2.58 |
| RHOT1 (UniProt Q8IXI2) | 0.548 | -1.57 |
| EIF4G1 (UniProt Q04637) | -0.737 | -0.874 |
| UniProt Q01196 | 2.49 | 0.136 |
| GLB1 (UniProt P16278) | 0.677 | -2.22 |
| UniProt Q8N7R7 | -3.44 | 0.647 |
| UniProt Q9BX79 | 4.14 |  |
| RAB5B (UniProt P61020) | -0.305 | -0.601 |
| UniProt Q96EK4 | -1.48 |  |
| VRK2 (UniProt Q86Y07) | -1.06 | -0.666 |
| GYS1 (UniProt P13807) | -0.613 | -0.953 |
| UniProt O14531 |  | 1.79 |
| PCYT1A (UniProt P49585) | 0.279 | -0.0157 |
| NSMCE2 (UniProt Q96MF7) | -0.785 | -0.44 |

| Target | melting temperature shift [1] [°C] | melting temperature shift [2] [°C] |
| --- | --- | --- |
| UniProt P42773 | 0.804 |  |
| UniProt P04216 | -1.01 | 4.57 |
| GOSR1 (UniProt O95249) | 1.23 | -0.91 |
| MPHOSPH6 (UniProt Q99547) | -0.156 | -0.875 |
| PTCD3 (UniProt Q96EY7) | -0.721 | -1.22 |
| TFB1M (UniProt Q8WVM0) | -0.619 |  |
| PICALM (UniProt Q13492) | -0.657 | -0.422 |
| UniProt Q96C23 | -0.587 | -0.195 |
| ZSWIM8 (UniProt A7E2V4) | 1.9 |  |
| TAOK2 (UniProt Q9UL54) | -3.11 |  |
| CAMK4 (UniProt Q16566) | -2.89 | -1.91 |
| OSBPL11 (UniProt Q9BXB4) | -0.635 | 1.97 |
| MRPS2 (UniProt Q9Y399) | -0.128 | 0.0265 |
| PSMA4 (UniProt P25789) |  | 1.56 |
| UniProt Q0VGL1 | 0.672 |  |
| IAH1 (UniProt Q2TAA2) |  | 0.378 |
| IGBP1 (UniProt P78318) | -1.23 | -0.884 |
| MRPL42 (UniProt Q9Y6G3) | 1.85 | 0.654 |
| UniProt P09086 |  | -0.964 |
| ATXN3 (UniProt P54252) | -0.463 |  |
| CDC26 (UniProt Q8NHZ8) | -0.0279 |  |
| IRGQ (UniProt Q8WZA9) | -0.505 | 0.0211 |
| BCL2L13 (UniProt Q9BXK5) | 0.178 | 0.381 |
| BPGM (UniProt P07738) | -0.709 | -3.83 |

| Target | melting temperature shift [1] [°C] | melting temperature shift [2] [°C] |
| --- | --- | --- |
| EDEM3 (UniProt Q9BZQ6) | 0.918 | 0.46 |
| UniProt Q92928 |  | -2.02 |
| LSM8 (UniProt O95777) | -0.732 | -2.77 |
| CDK5 (UniProt Q00535) | 0.617 | -0.932 |
| UniProt Q5I7T1 |  | -0.655 |
| AMMECR1 (UniProt Q9Y4X0) |  | -0.421 |
| CSTF3 (UniProt Q12996) | -0.334 | -0.358 |
| UniProt Q9H8T0 | -0.394 | 1.13 |
| FIBP (UniProt O43427) | -0.0657 | -1.25 |
| UniProt Q8N9V7 |  | -0.488 |
| CLIC1 (UniProt O00299) | -0.434 | 0.15 |
| COQ5 (UniProt Q5HYK3) | -1.87 | -1.9 |
| FLOT1 (UniProt O75955) | 0.415 | 0.843 |
| UniProt Q9UPW0 |  | 0.0829 |
| RBM12 (UniProt Q9NTZ6) | -0.071 | -1.28 |
| UniProt Q9NV88 | 0.336 | 0.682 |
| DDT (UniProt P30046) | -1.25 | -0.0656 |
| UniProt P24001 | 1.01 | -0.358 |
| HSPA4 (UniProt P34932) | -0.16 | 0.542 |
| DPP9 (UniProt Q86TI2) | -0.627 | -0.137 |
| MED18 (UniProt Q9BUE0) | -1 | 1.73 |
| UniProt Q86UB9 |  | 4.61 |
| UniProt Q8NFT6 | 1.37 |  |
| ERLIN2 (UniProt O94905) | 1.61 | 0.115 |

Part of the list above, as comma-separated lines.
Target,melting temperature shift [1] [°C],melting temperature shift [2] [°C]
UniProt P09086,,-0.964
ATXN3 (UniProt P54252),-0.463,
CDC26 (UniProt Q8NHZ8),-0.0279,
IRGQ (UniProt Q8WZA9),-0.505,0.0211
BCL2L13 (UniProt Q9BXK5),0.178,0.381
BPGM (UniProt P07738),-0.709,-3.83
EDEM3 (UniProt Q9BZQ6),0.918,0.46
UniProt Q92928,,-2.02
LSM8 (UniProt O95777),-0.732,-2.77
CDK5 (UniProt Q00535),0.617,-0.932
UniProt Q5I7T1,,-0.655
AMMECR1 (UniProt Q9Y4X0),,-0.421
CSTF3 (UniProt Q12996),-0.334,-0.358
UniProt Q9H8T0,-0.394,1.13
FIBP (UniProt O43427),-0.0657,-1.25
UniProt Q8N9V7,,-0.488
CLIC1 (UniProt O00299),-0.434,0.15
COQ5 (UniProt Q5HYK3),-1.87,-1.9
FLOT1 (UniProt O75955),0.415,0.843
UniProt Q9UPW0,,0.0829
RBM12 (UniProt Q9NTZ6),-0.071,-1.28
UniProt Q9NV88,0.336,0.682
DDT (UniProt P30046),-1.25,-0.0656
UniProt P24001,1.01,-0.358
HSPA4 (UniProt P34932),-0.16,0.542
DPP9 (UniProt Q86TI2),-0.627,-0.137
MED18 (UniProt Q9BUE0),-1,1.73
UniProt Q86UB9,,4.61

3 entries drawn at random from the list so far, as already listed:

| Target | melting temperature shift [1] [°C] | melting temperature shift [2] [°C] |
| --- | --- | --- |
| DDT (UniProt P30046) | -1.25 | -0.0656 |
| RBM12 (UniProt Q9NTZ6) | -0.071 | -1.28 |
| EDEM3 (UniProt Q9BZQ6) | 0.918 | 0.46 |

Continued.

| Target | melting temperature shift [1] [°C] | melting temperature shift [2] [°C] |
| --- | --- | --- |
| UniProt Q9NX76 | 3.57 | -1.11 |
| UniProt Q86SE5 |  | -1.19 |
| ACSL3 (UniProt O95573) | 0.941 | -1.17 |
| NECAP2 (UniProt Q9NVZ3) | -2.6 | -0.833 |
| LRWD1 (UniProt Q9UFC0) | 0.273 | -0.544 |
| UniProt P29728 | -0.0939 |  |
| RPL13 (UniProt P26373) | 0.692 | -0.768 |
| UniProt Q2QD12 |  | 2.04 |
| UniProt O76061 | -0.438 |  |
| TMEM223 (UniProt A0PJW6) | 0.606 | -1.05 |
| UniProt P22676 | -1.96 | -0.299 |
| MSRB3 (UniProt Q8IXL7) | -0.258 |  |
| KIAA0907 (UniProt Q7Z7F0) | -1.8 | -2.28 |
| PDE4DIP (UniProt Q5VU43) | -1.09 | -0.846 |
| PIH1D1 (UniProt Q9NWS0) | -0.675 | 0.903 |
| UniProt Q13367 |  | -1.48 |
| RAB7A (UniProt P51149) | 1.11 | -1.46 |
| TRMT10C (UniProt Q7L0Y3) | 0.333 | -1.85 |
| AIFM1 (UniProt O95831) | 1.42 | -0.983 |
| TTK (UniProt P33981) | -0.862 | -0.118 |
